# Laboratory results: PubChem BioAssay AID686937 (Drosophila RNAi Screening Center, 2013)
# Test: 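Genes in the fly needed for secretion of protein constitutively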 (primary screen)
# System: Drosophila S2 cells expressing secreted horseradish peroxidase
# Knock-down reagent: long dsRNA against Drosophila genes
# Timing: about 5.5 days (5 days dsRNA, then 12 h reporter induction)
# Treatment: reporter expression induced after 5 days of dsRNA, read 12 h later; inducer not stated
# Measured: 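Chemiluminescent measurement of peroxidase in the medium 12 h after reporter induction, following 5 days of dsRNA, given as a z-score per plate; higher means more secretion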
# Reading the numbers: z-score: higher = more reporter secreted into medium
# In all, the deposit lists about 23,000 reagents; below is an unselected part of those with a known target gene and a result. 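Reduced-secretion tags in replicate 1 do not always agree with the z-scores; no criterion for assigning the tags was given.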 Reagents against one gene are numbered here. Names joined by + are all predicted targets of the reagent. Not given: the amount of reagent.
target gene,dsRNA no.,"z-score, replicate 1","z-score, replicate 2","z-score, replicate 3","z-score, replicate 4","phenotype, replicate 1"
nab,1,0.57,-0.15,,,
nab,2,0.39,0.34,,,
spag,1,0.47,0.2,,,
Eig71Ek,1,0.42,0.3,,,
Sap-r,1,0,0.2,0.13,0.38,
Sap-r,2,-1.03,-0.8,,,reduced secretion
CG13482,1,-0.66,-0.72,,,
CG3690,1,0.47,0.42,,,
CG3690,2,0.42,0.33,,,
CG8543,1,0.29,0.31,,,
CG8543,2,-0.22,-0.56,,,
Nna1,1,0.29,0.41,1.92,0.31,
Nna1,2,0.35,0.27,,,
CG10274,1,-0.22,0.17,,,
CG32727,1,-0.17,0.16,,,
Syx5,1,-6.09,-5.24,,,reduced secretion

Taken from above.
Under “z-score, replicate 1”, nab #1 is entered as 0.57
For “phenotype, replicate 1”, Sap-r #2 reads reduced secretion
Result for Nna1 #2 under “z-score, replicate 1”: 0.35
Entry of CG3690 #2 under “z-score, replicate 2”: 0.33
For “z-score, replicate 1”, spag has 0.47

The listing continues:
target gene,dsRNA no.,"z-score, replicate 1","z-score, replicate 2","z-score, replicate 3","z-score, replicate 4","phenotype, replicate 1"
mey,1,0.14,0.43,,,
CG9003,1,0.55,0.5,,,
CG15167,1,0.16,0.18,,,
milt,1,0.17,0.43,,,
milt,2,-0.12,0.16,,,
milt,3,0,0.2,,,
vvl,1,0.22,0.12,,,
Or59c,1,0.36,0.42,,,
Cyp303a1,1,0.57,0.16,,,
Mst89B,1,0.28,0.79,,,
CG42362 + CG42363,1,0.3,0.36,,,
s-cup,1,0.44,0.44,,,
s-cup,2,0.21,0.18,,,
Obp56b,1,0.07,0.03,,,
CG7920,1,0.4,0.42,,,
CG7920,2,0.72,-0.05,,,
LManI,1,-0.08,0.19,,,
